Values from PubChem BioAssay AID652259 (Drosophila RNAi Screening Center, 2013)

- Assay: 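Identify new Wingless signalling regulators in fly cells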 (primary screen)
- Cells: Drosophila clone 8 imaginal disc epithelial cells
- Reagents: long dsRNA against Drosophila genes
- Conditions: pathway stimulated by co-transfected Wingless expression plasmid
- Detection: 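Dual luciferase reads per well after Wingless plasmid stimulation: reporter firefly light and Renilla control light; activity is firefly divided by Renilla, a ratio not deposited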
- Direction: firefly reporter light: higher = more Wg reporter light, before normalisation; Renilla control light: higher = more transfected or surviving cells
- Hit rule: 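Strong candidates differ from their plate mean by at least two out of four per-plate statistical tests; weak candidates meet just one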
- Calls: active = candidate regulator (raises or lowers reporter); inactive = not a candidate
The deposit covers about 22,000 reagents; shown is an unselected part of those that have a named target and a result. Over the whole deposit, 233 (1.1%) got an active call. 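Light values are raw, unnormalised plate reads; the ratio scores behind the reporter calls were not deposited.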 Unmarked entries are inactive. Not stated in the record: the amount of reagent, the time to read-out, the dose of the treatment.

{"gene":"Naglu","amplicon":"DRSC02267","firefly reporter light, replicate 1":9441,"Renilla control light, replicate 1":3760}
{"gene":"Cyp12b2","amplicon":"DRSC07364","firefly reporter light, replicate 1":6842,"Renilla control light, replicate 1":2080}
{"gene":"Dscam3","amplicon":"DRSC14525","firefly reporter light, replicate 1":13168,"Renilla control light, replicate 1":3400}
{"gene":"Dscam3","amplicon":"DRSC16376","firefly reporter light, replicate 1":14928,"Renilla control light, replicate 1":4739}
{"gene":"CG6443","amplicon":"DRSC02958","firefly reporter light, replicate 1":6028,"Renilla control light, replicate 1":1691}
{"gene":"htk","amplicon":"DRSC20029","firefly reporter light, replicate 1":16244,"Renilla control light, replicate 1":7176}
{"gene":"htk","amplicon":"DRSC20031","firefly reporter light, replicate 1":2678,"firefly reporter light, replicate 2":14502,"Renilla control light, replicate 1":1212,"Renilla control light, replicate 2":3564}
{"gene":"conv","amplicon":"DRSC07213","reporter change call, replicate 1":"Wg reporter activity lowered","firefly reporter light, replicate 1":4688,"Renilla control light, replicate 1":954}

As entered above:
htk [DRSC20029], Renilla control light, replicate 1 = 7176
For “Renilla control light, replicate 1”, htk [DRSC20031] reads 1212

Next results:
{"gene":"CG15306","amplicon":"DRSC17993","firefly reporter light, replicate 1":12934,"Renilla control light, replicate 1":8764}
{"gene":"CG15306","amplicon":"DRSC18240","firefly reporter light, replicate 1":17910,"Renilla control light, replicate 1":9875}
{"gene":"GPHR","amplicon":"DRSC07075","firefly reporter light, replicate 1":8651,"Renilla control light, replicate 1":1869}
{"gene":"CG14130","amplicon":"DRSC10134","firefly reporter light, replicate 1":5532,"Renilla control light, replicate 1":1572}
{"gene":"GstZ2","amplicon":"DRSC16479","firefly reporter light, replicate 1":7089,"Renilla control light, replicate 1":2410}
{"gene":"Grik","amplicon":"DRSC15846","firefly reporter light, replicate 1":2160,"firefly reporter light, replicate 2":5238,"Renilla control light, replicate 1":1195,"Renilla control light, replicate 2":1659}
{"gene":"Grik","amplicon":"DRSC15847","firefly reporter light, replicate 1":12851,"Renilla control light, replicate 1":2669}
{"gene":"CG5446","amplicon":"DRSC02862","firefly reporter light, replicate 1":2225,"firefly reporter light, replicate 2":4443,"Renilla control light, replicate 1":1018,"Renilla control light, replicate 2":2374}
{"gene":"Arp5","amplicon":"DRSC16350","firefly reporter light, replicate 1":2544,"firefly reporter light, replicate 2":7337,"Renilla control light, replicate 1":871,"Renilla control light, replicate 2":1469}
